Laboratory results taken from publication PMC9581579 (2022).
These are yes or no findings as the source states them, for the method shown. In cells and extracts the contact can be indirect. Some results given as binding are weak or reduced against the parent protein; the word gives no strength. For part of these data: Where a sequence is shown, tags or fusion partners need not be part of it. Each block holds one molecule with its values, some of them ahead of it.

Sequences of proteins named here, by UniProt entry; tags and fusion partners are left off.
UniProt A2AKB4: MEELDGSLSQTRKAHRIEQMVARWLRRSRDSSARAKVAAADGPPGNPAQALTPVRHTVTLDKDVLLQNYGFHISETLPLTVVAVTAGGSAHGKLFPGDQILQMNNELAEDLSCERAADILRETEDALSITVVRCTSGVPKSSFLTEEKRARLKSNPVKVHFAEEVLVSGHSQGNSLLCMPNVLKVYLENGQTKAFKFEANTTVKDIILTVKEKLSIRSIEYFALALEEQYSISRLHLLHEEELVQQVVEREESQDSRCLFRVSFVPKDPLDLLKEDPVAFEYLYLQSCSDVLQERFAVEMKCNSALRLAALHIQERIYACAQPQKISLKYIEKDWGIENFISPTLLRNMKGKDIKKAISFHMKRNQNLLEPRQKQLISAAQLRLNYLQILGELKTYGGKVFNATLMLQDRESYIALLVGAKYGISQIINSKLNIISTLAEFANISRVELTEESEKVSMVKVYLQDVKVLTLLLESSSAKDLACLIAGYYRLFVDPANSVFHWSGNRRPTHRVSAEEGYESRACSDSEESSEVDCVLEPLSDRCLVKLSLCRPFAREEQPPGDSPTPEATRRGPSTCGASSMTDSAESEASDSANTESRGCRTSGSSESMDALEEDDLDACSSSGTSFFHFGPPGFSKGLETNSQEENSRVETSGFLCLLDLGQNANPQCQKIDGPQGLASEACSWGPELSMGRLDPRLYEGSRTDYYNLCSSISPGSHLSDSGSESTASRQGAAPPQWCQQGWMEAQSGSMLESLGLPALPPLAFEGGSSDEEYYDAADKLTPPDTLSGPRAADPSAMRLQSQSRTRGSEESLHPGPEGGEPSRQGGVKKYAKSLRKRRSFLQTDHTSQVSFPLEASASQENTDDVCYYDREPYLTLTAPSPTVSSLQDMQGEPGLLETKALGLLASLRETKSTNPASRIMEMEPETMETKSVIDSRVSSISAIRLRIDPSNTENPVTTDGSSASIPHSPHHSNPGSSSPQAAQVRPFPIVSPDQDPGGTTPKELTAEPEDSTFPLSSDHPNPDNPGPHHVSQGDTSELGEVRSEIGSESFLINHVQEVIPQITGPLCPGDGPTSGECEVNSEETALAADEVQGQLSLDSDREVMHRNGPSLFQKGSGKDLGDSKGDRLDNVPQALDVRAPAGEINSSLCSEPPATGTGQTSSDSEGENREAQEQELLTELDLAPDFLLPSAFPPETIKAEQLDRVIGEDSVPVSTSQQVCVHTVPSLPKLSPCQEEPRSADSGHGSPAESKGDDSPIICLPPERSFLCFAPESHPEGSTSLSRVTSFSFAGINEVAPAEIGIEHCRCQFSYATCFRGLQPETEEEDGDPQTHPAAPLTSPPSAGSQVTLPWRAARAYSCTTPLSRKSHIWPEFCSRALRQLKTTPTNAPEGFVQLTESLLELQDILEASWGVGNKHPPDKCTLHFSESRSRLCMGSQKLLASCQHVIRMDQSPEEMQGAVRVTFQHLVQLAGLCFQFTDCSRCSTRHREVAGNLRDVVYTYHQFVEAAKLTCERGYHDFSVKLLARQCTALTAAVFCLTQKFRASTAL

Key:
[1] = molecular target: T1, Gpsm2 (G-protein signaling modulator 2, LGN), endogenous in mouse retina (mouse (endogenous in retina)) (UniProt Q8VDU0); test: co-IP; mouse retina lysate, endogenous proteins; mice light-adapted 1 h, then dark-adapted 1 h; IP with anti-Gpsm2 or anti-Frmpd1, Dynabeads protein A or G, immunoblot; IP buffer 150 mM NaCl, 3 mM EDTA, 40 mM Tris, 10% glycerol, 1% n-dodecyl-β-D-maltoside
T1 sequence: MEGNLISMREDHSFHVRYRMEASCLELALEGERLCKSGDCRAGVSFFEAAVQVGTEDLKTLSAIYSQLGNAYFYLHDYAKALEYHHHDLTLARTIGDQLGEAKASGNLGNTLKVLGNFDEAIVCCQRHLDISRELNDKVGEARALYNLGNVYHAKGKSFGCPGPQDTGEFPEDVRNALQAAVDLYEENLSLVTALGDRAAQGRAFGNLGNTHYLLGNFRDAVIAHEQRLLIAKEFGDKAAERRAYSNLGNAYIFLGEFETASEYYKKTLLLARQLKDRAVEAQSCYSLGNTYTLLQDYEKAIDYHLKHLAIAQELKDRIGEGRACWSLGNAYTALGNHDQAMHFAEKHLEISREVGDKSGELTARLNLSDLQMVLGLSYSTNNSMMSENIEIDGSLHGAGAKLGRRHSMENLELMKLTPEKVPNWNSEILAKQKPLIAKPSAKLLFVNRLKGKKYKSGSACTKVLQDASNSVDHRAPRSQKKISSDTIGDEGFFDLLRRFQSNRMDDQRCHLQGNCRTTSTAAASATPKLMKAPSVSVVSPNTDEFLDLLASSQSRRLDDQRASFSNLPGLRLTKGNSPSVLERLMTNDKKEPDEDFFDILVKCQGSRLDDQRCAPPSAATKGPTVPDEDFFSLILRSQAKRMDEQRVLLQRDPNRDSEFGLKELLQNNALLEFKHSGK

[2] = molecular target: FLAG-tagged full-length Frmpd1 (FERM and PDZ domain containing 1) (mouse) (UniProt A2AKB4); test: co-IP; HEK293 cells co-transfected with 3′ FLAG-Frmpd1 and mCherry-Gpsm2; IP with anti-FLAG, blot anti-RFP, and IP with anti-RFP, blot anti-FLAG; IP buffer 150 mM NaCl, 3 mM EDTA, 40 mM Tris, 10% glycerol, 1% n-dodecyl-β-D-maltoside
[3] = molecular target: Frmpd1 (FERM and PDZ domain containing 1), endogenous in mouse retina (mouse (endogenous in retina)) (UniProt A2AKB4); test: co-IP; mouse retina lysate, endogenous proteins; mice light-adapted 1 h, then dark-adapted 1 h; IP with anti-Gpsm2 or anti-Frmpd1, Dynabeads protein A or G, immunoblot; IP buffer 150 mM NaCl, 3 mM EDTA, 40 mM Tris, 10% glycerol, 1% n-dodecyl-β-D-maltoside

binding [1]: binds
Molecule: Frmpd1 (FERM and PDZ domain containing 1), endogenous in mouse retina (from UniProt A2AKB4 1-1549)

binding [2]: binds
B1: mCherry-Gpsm2 fusion protein (G-protein signaling modulator 2, LGN) (protein, UniProt P81274 1-684)
chain: MEENLISMREDHSFHVRYRMEASCLELALEGERLCKSGDCRAGVSFFEAAVQVGTEDLKTLSAIYSQLGNAYFYLHDYAKALEYHHHDLTLARTIGDQLGEAKASGNLGNTLKVLGNFDEAIVCCQRHLDISRELNDKVGEARALYNLGNVYHAKGKSFGCPGPQDVGEFPEEVRDALQAAVDFYEENLSLVTALGDRAAQGRAFGNLGNTHYLLGNFRDAVIAHEQRLLIAKEFGDKAAERRAYSNLGNAYIFLGEFETASEYYKKTLLLARQLKDRAVEAQSCYSLGNTYTLLQDYEKAIDYHLKHLAIAQELNDRIGEGRACWSLGNAYTALGNHDQAMHFAEKHLEISREVGDKSGELTARLNLSDLQMVLGLSYSTNNSIMSENTEIDSSLNGVRPKLGRRHSMENMELMKLTPEKVQNWNSEILAKQKPLIAKPSAKLLFVNRLKGKKYKTNSSTKVLQDASNSIDHRIPNSQRKISADTIGDEGFFDLLSRFQSNRMDDQRCCLQEKNCHTASTTTSSTPPKMMLKTSSVPVVSPNTDEFLDLLASSQSRRLDDQRASFSNLPGLRLTQNSQSVLSHLMTNDNKEADEDFFDILVKCQGSRLDDQRCAPPPATTKGPTVPDEDFFSLILRSQGKRMDEQRVLLQRDQNRDTDFGLKDFLQNNALLEFKNSGKKSADH

binding [3]: binds
B2: Gpsm2 (G-protein signaling modulator 2, LGN), endogenous in mouse retina (protein, UniProt Q8VDU0 1-679)
chain: MEGNLISMREDHSFHVRYRMEASCLELALEGERLCKSGDCRAGVSFFEAAVQVGTEDLKTLSAIYSQLGNAYFYLHDYAKALEYHHHDLTLARTIGDQLGEAKASGNLGNTLKVLGNFDEAIVCCQRHLDISRELNDKVGEARALYNLGNVYHAKGKSFGCPGPQDTGEFPEDVRNALQAAVDLYEENLSLVTALGDRAAQGRAFGNLGNTHYLLGNFRDAVIAHEQRLLIAKEFGDKAAERRAYSNLGNAYIFLGEFETASEYYKKTLLLARQLKDRAVEAQSCYSLGNTYTLLQDYEKAIDYHLKHLAIAQELKDRIGEGRACWSLGNAYTALGNHDQAMHFAEKHLEISREVGDKSGELTARLNLSDLQMVLGLSYSTNNSMMSENIEIDGSLHGAGAKLGRRHSMENLELMKLTPEKVPNWNSEILAKQKPLIAKPSAKLLFVNRLKGKKYKSGSACTKVLQDASNSVDHRAPRSQKKISSDTIGDEGFFDLLRRFQSNRMDDQRCHLQGNCRTTSTAAASATPKLMKAPSVSVVSPNTDEFLDLLASSQSRRLDDQRASFSNLPGLRLTKGNSPSVLERLMTNDKKEPDEDFFDILVKCQGSRLDDQRCAPPSAATKGPTVPDEDFFSLILRSQAKRMDEQRVLLQRDPNRDSEFGLKELLQNNALLEFKHSGK
